Measured values reported in publication PMC10030765.
No constants are given. Whether binding was seen depends on the method and setting. Binding seen in cells or lysates may run through a third protein. Binding calls can cover weak binding; strength is not graded here. Where a sequence is shown, tags or fusion partners need not be part of it.

Target: 3xFLAG tagged first two domains of Ccn2/Ctgf (rat)
Assay: co-IP; CHO cells co-transfected with SLIT2:MYC and 3xFLAG tagged Ccn2/Ctgf or mutants; conditioned media in 1x TBS, M2 antibody-conjugated agarose 16 h; immunoblot for SLIT2 (MYC Ab in the legend)

binding: binds weakly
B1: full-length human SLIT2 with MYC epitope (protein, UniProt O94813 31-1529)
chain: QCSCSGSTVDCHGLALRSVPRNIPRNTERLDLNGNNITRITKTDFAGLRHLRVLQLMENKISTIERGAFQDLKELERLRLNRNHLQLFPELLFLGTAKLYRLDLSENQIQAIPRKAFRGAVDIKNLQLDYNQISCIEDGAFRALRDLEVLTLNNNNITRLSVASFNHMPKLRTFRLHSNNLYCDCHLAWLSDWLRQRPRVGLYTQCMGPSHLRGHNVAEVQKREFVCSGHQSFMAPSCSVLHCPAACTCSNNIVDCRGKGLTEIPTNLPETITEIRLEQNTIKVIPPGAFSPYKKLRRIDLSNNQISELAPDAFQGLRSLNSLVLYGNKITELPKSLFEGLFSLQLLLLNANKINCLRVDAFQDLHNLNLLSLYDNKLQTIAKGTFSPLRAIQTMHLAQNPFICDCHLKWLADYLHTNPIETSGARCTSPRRLANKRIGQIKSKKFRCSAKEQYFIPGTEDYRSKLSGDCFADLACPEKCRCEGTTVDCSNQKLNKIPEHIPQYTAELRLNNNEFTVLEATGIFKKLPQLRKINFSNNKITDIEEGAFEGASGVNEILLTSNRLENVQHKMFKGLESLKTLMLRSNRITCVGNDSFIGLSSVRLLSLYDNQITTVAPGAFDTLHSLSTLNLLANPFNCNCYLAWLGEWLRKKRIVTGNPRCQKPYFLKEIPIQDVAIQDFTCDDGNDDNSCSPLSRCPTECTCLDTVVRCSNKGLKVLPKGIPRDVTELYLDGNQFTLVPKELSNYKHLTLIDLSNNRISTLSNQSFSNMTQLLTLILSYNRLRCIPPRTFDGLKSLRLLSLHGNDISVVPEGAFNDLSALSHLAIGANPLYCDCNMQWLSDWVKSEYKEPGIARCAGPGEMADKLLLTTPSKKFTCQGPVDVNILAKCNPCLSNPCKNDGTCNSDPVDFYRCTCPYGFKGQDCDVPIHACISNPCKHGGTCHLKEGEEDGFWCICADGFEGENCEVNVDDCEDNDCENNSTCVDGINNYTCLCPPEYTGELCEEKLDFCAQDLNPCQHDSKCILTPKGFKCDCTPGYVGEHCDIDFDDCQDNKCKNGAHCTDAVNGYTCICPEGYSGLFCEFSPPMVLPRTSPCDNFDCQNGAQCIVRINEPICQCLPGYQGEKCEKLVSVNFINKESYLQIPSAKVRPQTNITLQIATDEDSGILLYKGDKDHIAVELYRGRVRASYDTGSHPASAIYSVETINDGNFHIVELLALDQSLSLSVDGGNPKIITNLSKQSTLNFDSPLYVGGMPGKSNVASLRQAPGQNGTSFHGCIRNLYINSELQDFQKVPMQTGILPGCEPCHKKVCAHGTCQPSSQAGFTCECQEGWMGPLCDQRTNDPCLGNKCVHGTCLPINAFSYSCKCLEGHGGVLCDEEEDLFNPCQAIKCKHGKCRLSGLGQPYCECSSGYTGDSCDREISCRGERIRDYYQKQQGYAACQTTKKVSRLECRGGCAGGQCCGPLRSKRRKYSFECTDGSSFVDEVEKVVKCGCTRCVS
